Article doi:10.1101/2022.09.13.507805
These are yes or no findings as the source states them, for the method shown. Binding seen in cells or lysates may run through a third protein. Some entries that bind do so weakly or less than the wild type. Tags and fused reporters may be left off the sequences shown.

Target: T1, FM-CYCB1 (Flag-4Myc-tagged CYCB1;1) (Arabidopsis thaliana) (UniProt P30183)
T1 sequence: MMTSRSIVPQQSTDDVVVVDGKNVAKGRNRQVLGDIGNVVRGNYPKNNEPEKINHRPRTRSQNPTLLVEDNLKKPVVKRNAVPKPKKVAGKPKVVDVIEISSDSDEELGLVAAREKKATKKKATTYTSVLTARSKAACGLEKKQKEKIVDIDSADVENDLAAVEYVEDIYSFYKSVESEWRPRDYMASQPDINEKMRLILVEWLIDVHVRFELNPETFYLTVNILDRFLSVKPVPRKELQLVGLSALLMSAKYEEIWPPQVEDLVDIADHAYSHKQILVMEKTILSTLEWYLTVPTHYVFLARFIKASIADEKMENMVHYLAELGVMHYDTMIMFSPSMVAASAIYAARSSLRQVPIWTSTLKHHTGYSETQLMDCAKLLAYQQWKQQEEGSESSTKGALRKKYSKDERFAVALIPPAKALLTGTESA
Test: co-IP

binding: binds
B1: HA-RAD51 (HA3-tagged RAD51) (protein, UniProt P94102 1-342)
chain: MTTMEQRRNQNAVQQQDDEETQHGPFPVEQLQAAGIASVDVKKLRDAGLCTVEGVAYTPRKDLLQIKGISDAKVDKIVEAASKLVPLGFTSASQLHAQRQEIIQITSGSRELDKVLEGGIETGSITELYGEFRSGKTQLCHTLCVTCQLPMDQGGGEGKAMYIDAEGTFRPQRLLQIADRFGLNGADVLENVAYARAYNTDHQSRLLLEAASMMIETRFALLIVDSATALYRTDFSGRGELSARQMHLAKFLRSLQKLADEFGVAVVITNQVVAQVDGSALFAGPQFKPIGGNIMAHATTTRLALRKGRAEERICKVISSPCLPEAEARFQISTEGVTDCKD
